Source: PubChem BioAssay AID493246 (Drosophila RNAi Screening Center, 2011)

Purpose: 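Genes fly cells need to grow and stay alive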 (primary screen)
Cells: Drosophila Kc and S2R+ cells
Reagent: long dsRNA against Drosophila genes
Measured: 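Raw, unnormalised count of remaining cells in each well; per-plate z-scores of cell number underlie the calls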
Scale: Kc cell number and S2R+ cell number: higher = more cells remaining
Rule for the call: 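Active when the per-plate z-score of cell number is 3 or more in the direction of fewer cells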
The screen tested about 21,000 reagents; below is an unselected part of those that have a named target and a result. In the full data, 429 (2%) are marked active. 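Values are raw and not normalised between plates; calls rest on per-plate z-scores that were not deposited.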 Entries without a mark were called inactive. No sequences are given here. Not stated in the record: the amount of reagent, the time to read-out.

| gene | DRSC id | Kc cell number, rep 1 | Kc cell number, rep 2 | S2R+ cell number, rep 1 | S2R+ cell number, rep 2 |
| --- | --- | --- | --- | --- | --- |
| Snoo | DRSC01008 | 1.45e6 | 1.51e6 | 1.03e6 | 1.10e6 |
| Snoo | DRSC03004 | 1.28e6 | 1.35e6 | 6.41e5 | 7.71e5 |
| Snoo | DRSC03035 | 1.56e6 | 1.63e6 | 1.21e6 | 1.30e6 |
| CG7149 | DRSC03016 | 1.40e6 | 1.61e6 | 2.50e5 | 3.16e5 |
| CG8860 | DRSC07291 | 1.55e6 | 1.59e6 | 1.21e6 | 1.35e6 |
| CG4768 | DRSC19917 | 1.67e6 | 1.57e6 | 1.16e6 | 1.27e6 |
| CG8272 | DRSC07134 | 1.40e6 | 1.47e6 | 1.20e6 | 1.19e6 |
| SMC2 | DRSC07544 | 1.47e6 | 1.50e6 | 1.18e6 | 1.26e6 |
| GstE13 | DRSC06083 | 1.45e6 | 1.45e6 | 1.15e6 | 1.17e6 |
| Or83a | DRSC12357 | 1.59e6 | 1.73e6 | 1.38e6 | 1.51e6 |
| CG12436 (retired record) | DRSC09869 | 1.50e6 | 1.60e6 | 1.23e6 | 1.33e6 |
| CG12436 (retired record) | DRSC09885 | 1.39e6 | 1.34e6 | 1.24e6 | 1.31e6 |
| Cpr64Ab | DRSC08461 | 1.70e6 | 1.55e6 | 1.09e6 | 1.33e6 |
| ebi | DRSC00816 | 1.42e6 | 1.44e6 | 8.42e5 | 9.52e5 |
| CG17637 | DRSC11740 | 1.37e6 | 1.43e6 | 1.19e6 | 1.21e6 |
| Caf1-180 | DRSC17807 | 5.40e5 | – | 8.20e5 | – |
| CG18545 | DRSC15343 | 1.34e6 | 1.43e6 | 1.25e6 | 1.28e6 |
| CG7601 | DRSC14131 | 5.64e5 | – | 8.10e5 | – |
| Ccz1 | DRSC08439 | 1.39e6 | 1.24e6 | 9.62e5 | 1.19e6 |
| GstD1 | DRSC16683 | 1.48e6 | 1.45e6 | 1.19e6 | 1.29e6 |
| LysE | DRSC08675 | 1.41e6 | 1.27e6 | 9.38e5 | 1.25e6 |
| CG7296 | DRSC03042 | 1.65e6 | 1.66e6 | 1.10e6 | 1.19e6 |
| Adf1 | DRSC04941 | 1.51e6 | 1.52e6 | 1.02e6 | 1.14e6 |
| Adf1 | DRSC04963 | 1.21e6 | 1.26e6 | 1.03e6 | 1.10e6 |
| CG31245 | DRSC15498 | 1.36e6 | 1.35e6 | 1.04e6 | 1.08e6 |
| SdhBL | DRSC20039 | 1.43e6 | 1.48e6 | 1.04e6 | 1.13e6 |
| Mtr4 | DRSC03560 | 1.23e6 | 1.31e6 | 1.18e6 | 1.20e6 |
| cpx | DRSC11999 | 1.52e6 | 1.59e6 | 1.13e6 | 1.31e6 |
| lark | DRSC11362 | 1.20e6 | 1.24e6 | 1.11e6 | 1.10e6 |
| mRpS14 | DRSC19444 | 1.42e6 | 1.44e6 | 1.01e6 | 1.07e6 |
| CG6843 | DRSC10725 | 1.57e6 | 1.74e6 | 1.20e6 | 1.38e6 |
| Panx | DRSC04563 | 1.52e6 | 1.61e6 | 1.27e6 | 3.55e5 |
| CG8032 | DRSC16365 | 1.39e6 | 1.51e6 | 1.20e6 | 1.29e6 |
| pira | DRSC19494 | 1.51e6 | 1.49e6 | 9.17e5 | 1.03e6 |
| CG13494 | DRSC04139 | 1.84e6 | 1.95e6 | 1.25e6 | 2.81e5 |
| CG7029 | DRSC16177 | 1.71e6 | 1.65e6 | 1.26e6 | 1.26e6 |
| CG6959 | DRSC16151 | 1.55e6 | 1.59e6 | 1.36e6 | 1.42e6 |
| CG7523 | DRSC16254 | 1.58e6 | 1.60e6 | 1.25e6 | 1.30e6 |
| CG11898 | DRSC14432 | 1.49e6 | 1.48e6 | 1.04e6 | 1.13e6 |
| CG9287 | DRSC03186 | 1.49e6 | 1.50e6 | 1.03e6 | 1.12e6 |
| CG4829 | DRSC19920 | 1.56e6 | 1.63e6 | 1.00e6 | 1.20e6 |
| CG14710 | DRSC14933 | 1.52e6 | 1.59e6 | 1.16e6 | 1.19e6 |
| Clic | DRSC19364 | 5.84e5 | – | 8.85e5 | – |
| CG9733 | DRSC16549 | 1.48e6 | 1.48e6 | 1.01e6 | 1.14e6 |
| fdl | DRSC07279 | 1.59e6 | 1.59e6 | 1.19e6 | 1.39e6 |
| 2mit | DRSC14194 | 1.48e6 | 1.52e6 | 1.08e6 | 1.25e6 |
| 2mit | DRSC15224 | 1.49e6 | 1.54e6 | 1.16e6 | 1.27e6 |

Entries listed so far whose gene name begins with M or m (2):
| gene | DRSC id | Kc cell number, rep 1 | Kc cell number, rep 2 | S2R+ cell number, rep 1 | S2R+ cell number, rep 2 |
| --- | --- | --- | --- | --- | --- |
| Mtr4 | DRSC03560 | 1.23e6 | 1.31e6 | 1.18e6 | 1.20e6 |
| mRpS14 | DRSC19444 | 1.42e6 | 1.44e6 | 1.01e6 | 1.07e6 |

The results go on:
| gene | DRSC id | Kc cell number, rep 1 | Kc cell number, rep 2 | S2R+ cell number, rep 1 | S2R+ cell number, rep 2 |
| --- | --- | --- | --- | --- | --- |
| Mks1 | DRSC19697 | 1.59e6 | 1.62e6 | 1.13e6 | 1.28e6 |
| CG14322 | DRSC14801 | 1.10e6 | 1.22e6 | 9.03e5 | 8.93e5 |
| tpr | DRSC04468 | 1.31e6 | 1.39e6 | 1.00e6 | 1.08e6 |
| CG8300 | DRSC18426 | 3.16e5 | – | 6.66e5 | – |
| spt4 | DRSC07696 | 1.72e6 | 1.70e6 | 1.02e6 | 1.13e6 |
| CG8306 | DRSC07141 | 1.36e6 | 1.41e6 | 1.25e6 | 1.27e6 |
| CG9590 | DRSC16506 | 1.63e6 | 1.70e6 | 1.18e6 | 1.26e6 |
| CG8768 | DRSC07259 | 1.30e6 | 1.48e6 | 1.08e6 | 1.20e6 |
| Dna2 | DRSC18254 | 5.79e5 | – | 8.85e5 | – |
| kug | DRSC10911 | 1.46e6 | 1.51e6 | 1.34e6 | 1.31e6 |
| COX4 | DRSC02091 | 1.14e6 | 1.16e6 | 1.13e6 | 1.22e6 |
| ZnT33D | DRSC02591 | 1.46e6 | 1.54e6 | 1.22e6 | 1.35e6 |
| l(2)efl | DRSC04698 | 1.34e6 | 1.45e6 | 1.16e6 | 1.25e6 |
| numb | DRSC03584 | 1.26e6 | 1.32e6 | 1.25e6 | 1.18e6 |
| CG9961 | DRSC00738 | 1.56e6 | 1.59e6 | 1.10e6 | 1.29e6 |
| twz | DRSC04069 | 1.63e6 | 1.74e6 | 1.36e6 | 3.08e5 |
| Cka | DRSC03476 | 1.68e6 | 1.80e6 | 1.14e6 | 1.31e6 |
| pim | DRSC03591 | 1.25e6 | 1.33e6 | 7.92e5 | 8.39e5 |
| CG13585 | DRSC04221 | 1.71e6 | 1.75e6 | 1.39e6 | 1.49e6 |
| Cpr64Aa | DRSC08460 | 1.59e6 | 1.46e6 | 1.08e6 | 1.31e6 |
| l(2)10685 | DRSC00665 | 1.22e6 | 1.30e6 | 1.07e6 | 9.90e5 |
| CG43795 | DRSC04192 | 1.49e6 | 1.60e6 | 1.31e6 | 1.33e6 |
| CG43795 | DRSC04193 | 1.75e6 | 1.87e6 | 1.47e6 | 1.58e6 |
| CG43795 | DRSC04194 | 1.53e6 | 1.62e6 | 1.27e6 | 1.36e6 |
| CG43795 | DRSC04309 | 1.64e6 | 1.69e6 | 1.24e6 | 1.33e6 |
| CG43795 | DRSC04310 | 1.57e6 | 1.62e6 | 1.17e6 | 1.34e6 |
| CG7560 | DRSC10879 | 1.42e6 | 1.60e6 | 1.26e6 | 1.34e6 |
| CG7781 | DRSC03068 | 1.76e6 | 1.81e6 | 1.22e6 | 1.36e6 |
